Some peptides are written in HELM: one residue between dots, names in brackets for other building blocks, links after the first $. Square brackets hold non-standard residues; d marks the D form. * marks the point of attachment. Tos = Cc1ccc(S(=O)(=O)*)cc1; BrZ = O=C(OCc1ccccc1Br)*; ClZ = O=C(OCc1ccccc1Cl)*; OPac = O=C(CO*)c1ccccc1; Boc = CC(C)(C)OC(=O)*
Experiment: general procedure: solution-phase peptide synthesis; DCC/HONB (ONB active esters)
Conditions: for cyclisation yield: cyclisation step

| Substance | step yield (coupling step) [%] | cyclisation yield [%] | also measured |
| --- | --- | --- | --- |
| Boc-Arg (Tos)-D-Glu (NHCH2 CH2 Ph)-Tyr(Br-Z)-D-Trp-Leu-OPac | 83.3 | – | – |
| Boc-Arg(Tos)-D-Glu((2)-MeOPhp)-Tyr(Br-Z)-D-Trp-Leu-OPac | 100.0 | – | – |
| Boc-Arg(Tos)-D-Glu((2)-Pyp)-Tyr(Br-Z)-D-Trp-Leu-OPac | 100.0 | – | – |
| Boc-Arg(Tos)-D-Glu((4)-MeOPhp)-Tyr(Br-Z)-D-Trp-Leu-OPac | 100.0 | – | – |
| Boc-Arg(Tos)-D-Glu(Bzlp)-Tyr(Br-Z)-D-Trp-Leu-OPac | 100.0 | – | – |
| Boc-Arg(Tos)-D-Glu(NHCH2 CH2 Ph)-Asp (NHCH2 Ph)-D-Trp-Leu-OPac | 91.3 | – | – |
| Boc-Arg(Tos)-D-Glu(NHCH2 CH2 Ph)-Lys(COPh)-D-Trp-Leu-OPac | 96.3 | – | – |
| Boc-Arg(Tos)-D-Glu(NHCH2 Nap(1))-Tyr(Br-Z)-D-Trp-Leu-OPac | 99.7 | – | – |
| Boc-Arg(Tos)-D-Glu(NHCH2 Ph)-Tyr(Br-Z)-D-Trp-Leu-OPac | 79.6 | – | – |
| Boc-Arg(Tos)-D-Glu(NHCHPh2)-Tyr(Br-Z)-D-Trp-Leu-OPac | 100.0 | – | – |
| Boc-Arg(Tos)-D-Glu(Php)-Tyr(Br-Z)-D-Trp-Leu-OPac | 98.2 | – | – |
| Boc-Arg(Tos)-D-Lys(COCH2 Ph)-Tyr(Br-Z)-D-Trp-Leu-OPac | 35.6 | – | – |
| Boc-Arg(Tos)-D-Lys(SO2 Nap(1))-Tyr(Br-Z)-D-Trp-Leu-OPac | 67.4 | – | – |
| Boc-Arg(Tos)-Glu(Php)-Tyr(Br-Z)-D-Trp-Leu-O Pac | 100.0 | – | – |
| Boc-Arg(Tos)-Lys(SO2 Nap(2))-Tyr(Br-Z)-D-Trp-Leu-OPac | 49.9 | – | – |
| Boc-D-Glu((2)-MeOPhp)-Tyr(Br-Z)-D-Trp-Leu-OPac | 42.8 | – | – |
| Boc-D-Glu((2)-Pyp)-Tyr(Br-Z)-D-Trp-Leu-OPac | 73.1 | – | – |
| Boc-D-Glu((4)-MeOPhp)-Tyr(Br-Z)-D-Trp-Leu-OPac | 68.9 | – | – |
| Boc-D-Glu(Bzlp)-Tyr(Br-Z)-D-Trp-Leu-OPac | 74.5 | – | – |
| Boc-D-Glu(NHCH2 CH2 Ph)-Asp(NHCH2 Ph)-D-Trp-Leu-OPac | 21.1 | – | – |
| Boc-D-Glu(NHCH2 CH2 Ph)-Lys(COPh)-D-Trp-Leu-OPac | 70.8 | – | – |
| Boc-D-Glu(NHCH2 CH2 Ph)-Lys(COPh)-D-Trp-Phe-Arg(Tos)-OPac | 100 | – | – |
| Boc-D-Glu(NHCH2 CH2 Ph)-Lys(COPh)-D-Trp-Trp-Arg(Tos)-OPac | 100 | – | – |
| Boc-D-Glu(NHCH2 CH2 Ph)-Lys(Cl-Z)-D-Trp-Leu-Arg(Tos)-OPac | 90.0 | – | – |
| Boc-D-Glu(NHCH2 CH2 Ph)-Tyr(Br-Z)-D-Lys(Nic)-Leu-OPac | 58.5 | – | – |

| Substance | step yield (coupling step) [%] | cyclisation yield [%] | also measured |
| --- | --- | --- | --- |
| Boc-D-Glu(NHCH2 CH2 Ph)-Tyr(Br-Z)-D-Trp-Leu-OPac | 60.6 | – | – |
| Boc-D-Glu(NHCH2 CH2 Ph)-Tyr(Br-Z)-D-Trp-Phe-Arg(Tos)-OPac | 100 | – | – |
| Boc-D-Glu(NHCH2 CH2 Ph)-Tyr(Br-Z)-D-Trp-Trp-Arg(Tos)-OPac | 98.0 | – | – |
| Boc-D-Glu(NHCH2 Nap(1))-Tyr(Br-Z)-D-Trp-Leu-OPac | 43.5 | – | – |
| Boc-D-Glu(NHCH2 Ph)-Tyr(Br-Z)-D-Trp-Leu-OPac | 61.3 | – | – |
| Boc-D-Glu(Php)-Tyr(Br-Z)-D-Trp-Leu-OPac | 45.9 | – | – |
| Boc-D-Lys(COCH2 CH2 CH2 CH2 CH2 Ph)-Tyr(Br-Z)-D-Trp-Leu-Arg(Tos)-OPac | 80.1 | – | – |
| Boc-D-Lys(COCH2 CH2 CH2 Ph)-Tyr(Br-Z)-D-Trp-Leu-Arg(Tos)-OPac | 73.4 | – | – |
| Boc-D-Lys(COCH2 Ph)-Tyr(Br-Z)-D-Trp-Leu-OPac | 96.7 | – | – |
| Boc-D-Lys(COPh)-Tyr(Br-Z)-D-Trp-Leu-Arg(Tos)-OPac | 57.8 | – | – |
| Boc-D-Lys(SO2 Nap(1))-D-Tyr(Br-Z)-Arg(Tos)-D-Trp-Leu-OPac | 98.1 | – | – |
| Boc-D-Lys(SO2 Nap(1))-Tyr(Br-Z)-D-Trp-Leu-OPac | 93.2 | – | – |
| Boc-D-Lys(SO2 Nap(2))-Tyr(Br-Z)-D-Trp-Leu-Arg(Tos)-OPac | 79.8 | – | – |
| Boc-Glu(Php)-Tyr(Br-Z)-D-Trp-Leu-OPac | 69.2 | – | – |
| Boc-K(ClZ)[dW]LR(Tos)-OPac | 85.2 | – | – |
| Boc-Lys(COPh)-D-Trp-Phe-Arg(Tos)-OPac | 60.5 | – | – |
| Boc-Lys(COPh)-D-Trp-Trp-Arg(Tos)-OPac | 90.4 | – | – |
| Boc-Lys(Cl-Z)-D-Glu(Php)-Tyr(Br-Z)-D-Trp-Leu-OPac | 100.0 | – | – |
| Boc-Lys(SO2 Nap(1))-D-Tyr(Br-Z)-Arg(Tos)-D-Trp-D-Leu-OPac | 100 | – | – |
| Boc-Lys(SO2 Nap(2))-Tyr(Br-Z)-D-Trp-Leu-OPac | 100.0 | – | – |
| Boc-Lys(Z, isopropyl)-D-Glu(NHCH2 CH2 Ph)-Tyr(Br-Z)-D-Lys(Nic)-Leu-O Pac | 100 | – | – |
| Boc-Y(BrZ)[dW]FR(Tos)-OPac | 91.2 | – | – |
| Boc-Y(BrZ)[dW]LR(Tos)-OPac | 100 | – | – |
| Boc-Y(BrZ)[dW]WR(Tos)-OPac | 83.5 | – | – |
| Boc-[dK](Ac)Y(BrZ)[dW]LR(Tos)-OPac | 62.9 | – | – |

| Substance | step yield (coupling step) [%] | cyclisation yield [%] | also measured |
| --- | --- | --- | --- |
| Boc-[dK](ClZ)Y(BrZ)[dW]LR(Tos)-OPac | 89.7 | – | – |
| Boc-[dW]Y(BrZ)[dW]LR(Tos)-OPac | 91.0 | – | – |
| Boc-[dY](BrZ)R(Tos)[dW]L-OPac | 93.7 | – | – |
| Boc-[dY](BrZ)R(Tos)[dW][dL]-OPac | 69.1 | – | – |
| Cyclo(-Arg(Tos)-D-Glu(NHCH2 CH2 Ph)-Lys(CONap(1))-D-Trp-Leu-) | – | – | step yield (late stage modification step): 70.0% |
| Cyclo(-Arg(Tos)-D-Glu(NHCH2 CH2 Ph)-Lys(Cl-Z)-D-Trp-Leu-) | – | 72.3 | – |
| PEPTIDE1{A.[D-Arg(Tos)].F.[dA].W}$PEPTIDE1,PEPTIDE1,1:R1-5:R2$$$V2.0 | – | 21.8 | – |
| PEPTIDE1{F.R.F.[dA].W}$PEPTIDE1,PEPTIDE1,5:R2-1:R1$$$V2.0 | – | – | step yield (late stage modification step): 63.0% |
| PEPTIDE1{F.[D-Arg(Mtr)].F.[dA].W}$PEPTIDE1,PEPTIDE1,1:R1-5:R2$$$V2.0 | – | 5.8 | – |
| PEPTIDE1{F.[D-Arg(Tos)].F.[dA].W}$PEPTIDE1,PEPTIDE1,1:R1-5:R2$$$V2.0 | – | 10.8 | – |
| PEPTIDE1{F.[dR].F.[dA].W}$PEPTIDE1,PEPTIDE1,5:R2-1:R1$$$V2.0 | – | – | step yield (late stage modification step): 39.0% |
| PEPTIDE1{R.[D-Lys(SO2Nap(1))].Y.[dW].L}$PEPTIDE1,PEPTIDE1,1:R1-5:R2$$$V2.0 | – | 30.0 | – |
| PEPTIDE1{[Phg].[D-Arg(Tos)].F.[dA].F}$PEPTIDE1,PEPTIDE1,1:R1-5:R2$$$V2.0 | – | 13.1 | – |
| PEPTIDE1{[Phg].[D-Arg(Tos)].F.[dA].W}$PEPTIDE1,PEPTIDE1,1:R1-5:R2$$$V2.0 | – | 28.3 | – |
| PEPTIDE1{[Phg].[dR].F.[dA].W}$PEPTIDE1,PEPTIDE1,5:R2-1:R1$$$V2.0 | – | – | step yield (late stage modification step): 17.5% |
| PEPTIDE1{[Thg(2)].[D-Arg(Tos)].F.[dA].W}$PEPTIDE1,PEPTIDE1,1:R1-5:R2$$$V2.0 | – | 13.8 | crude yield (whole synthesis): 72.4% |
| cyclo(-Arg-D-Glu((2)-MeOPhp)-Tyr-D-Trp-Leu-) | – | 9.20 | – |
| cyclo(-Arg-D-Glu((2)-Pyp)-Tyr-D-Trp-Leu-) | – | 12.1 | – |
| cyclo(-Arg-D-Glu((4)-MeOPhp)-Tyr-D-Trp-Leu-) | – | 24.4 | – |
| cyclo(-Arg-D-Glu(Bzlp)-Tyr-D-Trp-Leu-) | – | 21.6 | – |
| cyclo(-Arg-D-Glu(NHCH2 CH2 Ph)-Asp (NHCH2 Ph)-D-Trp-Leu-) | – | 6.72 | – |
| cyclo(-Arg-D-Glu(NHCH2 CH2 Ph)-Lys(CONap(1))-D-Trp-Leu-) | – | – | step yield (late stage modification step): 90.7% |
| cyclo(-Arg-D-Glu(NHCH2 CH2 Ph)-Lys(COPh)-D-Trp-Leu-) | – | 57.6 | – |
| cyclo(-Arg-D-Glu(NHCH2 CH2 Ph)-Lys(COPh)-D-Trp-Phe-) | – | 5.7 | – |
| cyclo(-Arg-D-Glu(NHCH2 CH2 Ph)-Lys(COPh)-D-Trp-Trp-) | – | 13.9 | – |

| Substance | step yield (coupling step) [%] | cyclisation yield [%] | also measured |
| --- | --- | --- | --- |
| cyclo(-Arg-D-Glu(NHCH2 CH2 Ph)-Tyr-D-Trp-Leu-) | – | 30.9 | – |
| cyclo(-Arg-D-Glu(NHCH2 CH2 Ph)-Tyr-D-Trp-Phe-) | – | 37.0 | – |
| cyclo(-Arg-D-Glu(NHCH2 CH2 Ph)-Tyr-D-Trp-Trp-) | – | 14.8 | – |
| cyclo(-Arg-D-Glu(NHCH2 Nap(1))-Tyr-D-Trp-Leu-) | – | 56.7 | – |
| cyclo(-Arg-D-Glu(NHCH2 Ph)-Tyr-D-Trp-Leu-) | – | 27.1 | – |
| cyclo(-Arg-D-Glu(NHCHPh2)-Tyr-D-Trp-Leu-) | – | 26.1 | – |
| cyclo(-Arg-D-Glu(Php)-Tyr-D-Trp-Leu-) | – | 71.7 | – |
| cyclo(-Arg-D-Lys (COCH2 CH2 CH2 CH2 CH2 Ph)-Tyr-D-Trp-Leu-) | – | 26.8 | – |
| cyclo(-Arg-D-Lys(COCH2 CH2 CH2 Ph)-Tyr-D-Trp-Leu-) | – | 28.7 | – |
| cyclo(-Arg-D-Lys(COPh)-Tyr-D-Trp-Leu-) | – | 32.7 | – |
| cyclo(-Arg-D-Lys(SO2 Nap(2))-Trp-D-Trp-Leu-) | – | 27.1 | – |
| cyclo(-Arg-Glu(Php)-Tyr-D-Trp-Leu-) | – | 22.7 | – |
| cyclo(-Arg-Lys(SO2 Nap(2))-Tyr-D-Trp-Leu-) | – | 48.3 | – |
| cyclo(-D-Leu-Lys(SO2 Nap(1))-D-Tyr-Arg-D-Trp-) | – | 52.2 | – |
| cyclo(-D-Tyr-Arg(Tos)-D-Trp-Leu-D-Lys(SO2 Nap(1))-) | – | 16.9 | – |
| cyclo(-D-Tyr-Arg-D-Trp-Leu-D-Lys(SO2 Nap(1))-) | – | 54.3 | – |
| cyclo(-Leu-D-Arg-Lys(SO2 Nap(1)-D-Tyr-Trp-) | – | 21.1 | – |
| cyclo(-Lys(isopropyl)-D-Glu(NHCH2 CH2 Ph)-Tyr-D-Lys(Nic)-Leu-) | – | 44.3 | – |
| cyclo(-Lys-D-Glu(Php)-Tyr-D-Trp-Leu-) | – | 23.5 | – |
| cyclo(FR(Tos)F[dA]W) | – | 71.5 | – |
| cyclo(F[dR](Tos)F[dF]W) | – | 70.6 | – |
| cyclo(F[dR](Tos)F[dL]W) | – | 29.4 | – |
